According to the supplement of paper PMC9578143, “Small-Molecule Ebselen Binds to YTHDF Proteins Interfering with the Recognition of N^6-Methyladenosine-Modified RNAs” (ACS Pharmacology & Translational Science, 2022):
The other results are listed elsewhere or left out. Baselines shift from plate to plate; read single values as rough.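 Hits were defined as a z-score below −3.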

Each molecule was assayed against T1, YTHDF1 YTH domain (aa 365-554) (UniProt Q9BYJ9) (assay: tryptophan fluorescence intensity z-score (mean); higher = higher fluorescence, less quenching (negative = binding / quenching)). Conditions: 10 µM.
T1 sequence (whole entry): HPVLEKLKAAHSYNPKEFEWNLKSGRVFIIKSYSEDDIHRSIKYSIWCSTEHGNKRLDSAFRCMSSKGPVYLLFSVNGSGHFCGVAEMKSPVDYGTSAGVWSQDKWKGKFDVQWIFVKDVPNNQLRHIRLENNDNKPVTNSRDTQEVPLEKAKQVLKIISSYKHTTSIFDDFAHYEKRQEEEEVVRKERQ

Tryptophan fluorescence intensity z-score, inactive:
NS(=O)(=O)c1cc(C2(O)NC(=O)c3ccccc32)ccc1Cl (stereo unspecified) (plate: M 1-2) 0.594
CCCCCCCCCCCCCCCC(=O)OC/C=C(C)/C=C/C=C(C)/C=C/C1=C(C)CCCC1(C)C (plate: M 9-10) -0.0302
CC(=O)[C@@]1(O)CC[C@H]2[C@@H]3C=C(Cl)C4=CC(=O)[C@@H]5C[C@@H]5[C@]4(C)[C@H]3CC[C@@]21C (plate: M 23-24) 0.339
Nc1[nH]cnc2ncnc1-2 (plate: M 5-6) 0.228
NCCc1c[nH]cn1 (plate: M 3-4) -0.215
OC(Cn1cncn1)(Cn1cncn1)c1ccc(F)cc1F (plate: M 13-14) 0.202
Cc1cn[nH]c1 (plate: M 11-12) -0.567
COc1c(-c2coc3cc4c(cc3c2=O)CC(O)C(C)(C)O4)ccc2c1C=CC(C)(C)O2 (stereo unspecified) (plate: M 15-16) 0.00314
C=CC(C)(O)CCC=C(C)CCC=C(C)C (mixture of isomers) (plate: M 19-20) 0.344
CCCc1ncc(C[n+]2ccccc2C)c(N)n1 (plate: M 1-2) 0.237
COc1ccc2c(C)cc(=O)oc2c1 (plate: M 17-18) 0.449
O=C1OC(c2ccc(O)cc2)(c2ccc(O)cc2)c2ccccc21 (plate: M 5-6) 0.137
COc1cc(OC)c2c(=O)cc(-c3ccccc3)oc2c1 (plate: M 17-18) 0.136
COC(=O)C[C@H]1C(C)(C)[C@@H](O)[C@@H]2CC3=C4C=C(OC)O[C@@H](c5ccoc5)[C@]4(C)CCC3[C@@]1(C)C2=O (stereo partly drawn) [3-DEOXO-3beta-HYDROXYMEXICANOLIDE16-ENOLETHER] (plate: M 13-14) 0.659
CC(C(=O)O)c1cccc(Oc2ccccc2)c1 (stereo unspecified) (plate: M 7-8) 0.532
O=C(O)CN(CCN(CC(=O)O)CC(=O)O)CC(=O)O.[Na+].[Na+].[Na+] (plate: M 3-4) 0.0918
CCn1cc(C(=O)O)c(=O)c2cc(F)c(N3CCNCC3)nc21 (plate: M 7-8) 0.0732
OC[C@@H](O)[C@@H](O)[C@H](O)[C@H](O)CO (plate: M 1-2) 0.448
C=CCc1ccc(O)c(OC)c1 (plate: M 3-4) 0.469
COc1cc(O)c(C(=O)/C=C/c2ccc(OC)c(O)c2)c(OC)c1 (plate: M 19-20) 0.0931
CC(CCC(=O)O)[C@H]1CCC2C3C[C@H](O)[C@@H]4C[C@H](O)CC[C@]4(C)C3CC[C@@]21C (stereo partly drawn) [alpha-HYDROXYDEOXYCHOLICACID] (plate: M 15-16) 0.214
C1N2CN3CN1CN(C2)C3 (plate: M 3-4) 0.407
O=C(O)C1=C[C@@H](O)[C@@H](O)[C@H](O)C1 (plate: M 19-20) 0.244
C=C(C)[C@@H]1CC[C@]2(C(=O)O)CC[C@]3(C)[C@H](CC[C@@H]4[C@@]5(C)CC[C@H](O)C(C)(C)[C@@H]5CC[C@]43C)[C@@H]12 (plate: M 19-20) 0.558
Oc1ccc2c(c1)OC[C@]1(O)Cc3cc(O)c(O)cc3[C@H]21 (plate: M 15-16) 0.653
c1ccc2c(c1)CCCC2C1=NCCN1 (stereo unspecified) (plate: M 5-6) 0.0244
CS(=O)(=O)c1ccc([C@@H](O)[C@@H](CF)NC(=O)C(Cl)Cl)cc1 (plate: M 11-12) -0.387
CCN(CC)CCCC(C)Nc1ccnc2cc(Cl)ccc12 (stereo unspecified) (plate: M 1-2) -0.506
O=c1cc(-c2ccc(O)cc2)oc2cc(O[C@@H]3O[C@H](CO)[C@@H](O)[C@H](O)[C@H]3O[C@@H]3OC[C@](O)(CO)[C@H]3O)cc(O)c12 (plate: M 17-18) 0.101
C[N+](C)(C)CCOP(=O)(O)OP(=O)([O-])OC[C@H]1O[C@@H](n2ccc(N)nc2=O)[C@H](O)[C@@H]1O (plate: M 9-10) -0.428
Nc1ccc(S(=O)(=O)NC(=O)c2ccccc2)cc1 (plate: M 5-6) 0.188
CC(C)c1nc(N(C)S(C)(=O)=O)nc(-c2ccc(F)cc2)c1/C=C/[C@@H](O)C[C@@H](O)CC(=O)O (plate: M 9-10) -0.191
C=C(CC)C(=O)c1ccc(OCC(=O)O)c(Cl)c1Cl (plate: M 3-4) 0.116
CCCCCC1C(=O)CCC1CC(=O)OC (stereo unspecified) (plate: M 21-22) 0.516
COC(=O)[C@H](c1ccccc1Cl)N1CCc2sccc2C1 (plate: M 9-10) -0.305
C[C@]12CCC(=O)C=C1CC[C@@H]1[C@@H]2C(=O)C[C@@]2(C)[C@H]1CC[C@]2(O)C(=O)CO (plate: M 11-12) -0.604
CN(C)[C@@H]1C(O)=C(C(N)=O)C(=O)[C@@]2(O)C(O)=C3C(=O)c4c(O)cccc4[C@@](C)(O)[C@H]3C[C@@H]12 (plate: M 5-6) -0.0699
COc1ccc(-c2coc3cc(O)ccc3c2=O)cc1 (plate: M 15-16) 0.245
CCC(=O)O[C@H]1CC[C@H]2[C@@H]3CCc4cc(O)ccc4[C@H]3CC[C@]12C (plate: M 7-8) -0.814
CCOC(=O)N1CCC(=C2c3ccc(Cl)cc3CCc3cccnc32)CC1 (plate: M 9-10) -0.365
Nc1nc(F)nc2c1ncn2[C@@H]1O[C@H](COP(=O)(O)O)[C@@H](O)[C@@H]1O (plate: M 11-12) -0.731
NC(=O)c1ccccc1O (plate: M 5-6) -0.137
CC1=C(/C=C/C(C)=C/C=C/C(C)=C/C=C/C=C(C)/C=C/C=C(C)/C=C/C2=C(C)CCCC2(C)C)C(C)(C)CCC1 [beta-CAROTENE] (plate: M 1-2) 0.413
CC[C@H]1OC(=O)[C@H](C)[C@@H](O[C@H]2C[C@@](C)(OC)[C@@H](O)[C@H](C)O2)[C@H](C)[C@@H](O[C@@H]2O[C@H](C)C[C@H](N(C)C)[C@H]2O)[C@](C)(O)C[C@@H](C)C(=O)[C@H](C)[C@@H](O)[C@]1(C)O (plate: M 3-4) -0.109
CC(C)[C@@H](C)/C=C/[C@@H](C)[C@H]1CC[C@H]2C3=CC=C4C[C@@H](O)CC[C@]4(C)[C@H]3CC[C@]12C (plate: M 15-16) 0.315
O=C1c2ccccc2C(=O)C1c1ccccc1 (plate: M 3-4) 0.0414
Clc1ccc2c(c1)C(N1CCNCC1)=Nc1ccccc1O2 (plate: M 11-12) -0.154
O=C(O)CCc1nc(-c2ccccc2)c(-c2ccccc2)o1 (plate: M 9-10) 0.423
c1ccc(CC2=NCCN2)cc1 (plate: M 5-6) -0.0294
NCCCCC(=O)O (plate: M 23-24) 0.625
CC(C)(Oc1ccc(CCNC(=O)c2ccc(Cl)cc2)cc1)C(=O)O (plate: M 7-8) 0.373
OCCN1CCN(CCCN2c3ccccc3Sc3ccc(C(F)(F)F)cc32)CC1 (plate: M 7-8) -0.224
CC(=O)OCC(=O)[C@H]1CC[C@H]2[C@@H]3CC=C4C[C@@H](O)CC[C@]4(C)[C@H]3CC[C@]12C (plate: M 19-20) -0.252
CC1=CC(=O)[C@H]2C(C)(C)CCC[C@]2(C)[C@@]1(O)CCc1ccoc1 (plate: M 15-16) 0.283
O=C(O)c1ccccc1-c1c2cc(I)c(=O)c(I)c-2oc2c(I)c(O)c(I)cc12 (plate: M 13-14) -1.2
CCc1ccc(CCOc2ccc(CC3SC(=O)NC3=O)cc2)nc1 (stereo unspecified) (plate: M 9-10) -0.296
Cc1ccc(N(CC2=NCCN2)c2cccc(O)c2)cc1 (plate: M 5-6) -0.543
C[C@@H]1CC[C@H]2C(C)(C)[C@H]3C[C@@]12CC[C@@]3(C)O (plate: M 17-18) 0.44
Cc1c(Cl)cccc1Nc1ccccc1C(=O)O (plate: M 21-22) -0.274
CCCSc1ccc2[nH]c(NC(=O)OC)nc2c1 (plate: M 9-10) -0.124
COc1cc(C)c(C(=O)O)c(O)c1 (plate: M 15-16) 0.88
CO[C@H]1/C=C/O[C@@]2(C)Oc3c(C)c(O)c4c(O)c(c(/C=N/N5CCN(C)CC5)c(O)c4c3C2=O)NC(=O)/C(C)=C\C=C\[C@H](C)[C@H](O)[C@@H](C)[C@@H](O)[C@@H](C)[C@H](OC(C)=O)[C@@H]1C (plate: M 5-6) -0.665
N[C@@H](CSCSC[C@H](N)C(=O)O)C(=O)O (plate: M 17-18) 0.392
CN/C(=N\CCSCc1nc[nH]c1C)NC#N (plate: M 5-6) 0.0214
C/C(=C\C(=O)OCCCCCCCCC(=O)O)C[C@@H]1OC[C@H](C[C@@H]2O[C@H]2[C@@H](C)[C@H](C)O)[C@@H](O)[C@H]1O (plate: M 11-12) -0.881
O=C(O)c1cc(/N=N/c2ccc(S(=O)(=O)Nc3ccccn3)cc2)ccc1O (plate: M 5-6) -0.396

Random excerpt: 3 records from the list
Tryptophan fluorescence intensity z-score, inactive:
CC(C)(Oc1ccc(CCNC(=O)c2ccc(Cl)cc2)cc1)C(=O)O (plate: M 7-8) 0.373
C[N+](C)(C)CCOP(=O)(O)OP(=O)([O-])OC[C@H]1O[C@@H](n2ccc(N)nc2=O)[C@H](O)[C@@H]1O (plate: M 9-10) -0.428
NCCCCC(=O)O (plate: M 23-24) 0.625
